PMC7617965, “Interaction with AK2A links AIFM1 to cellular energy metabolism” (Molecular cell, 2025)
No constants are given. Whether binding was seen depends on the method and setting. In cells and extracts the contact can be indirect. A yes stands for co-enrichment or nearness to the bait. Other partners may have been found.

Legend:
AIFM1-HA (human) [1] = target: AIFM1-HA (human) (UniProt O95831); assay: affinity purification with mass spectrometry; IP of HA from AIFM1 KO cells inducibly and stably expressing AIFM1-HA or SMAC-MTS-AIFM1(103-613)-HA; the two interactomes compared
[2] = target: SMAC^MTS-AIFM1^(103–613)-HA (human) (UniProt O95831); assay: as above
AIFM1-HA (human) [3] = target: AIFM1-HA (human) (UniProt O95831); assay: affinity purification with mass spectrometry + peptide or protein array; integration of the three datasets (label-free and SILAC co-IP of AIFM1-HA from HEK293, protein microarray with purified AIFM1); which of them found the hit is not told

Measured: binding

B1: MIA40, endogenous (protein, UniProt Q8N4Q1 1-142)
chain: MSYCRQEGKDRIIFVTKEDHETPSSAELVADDPNDPYEEHGLILPNGNINWNCPCLGGMASGPCGEQFKSAFSCFHYSTEEIKGSDCVDQFRAMQECMQKYPDLYPQEDEDEEEEREKKPAEQAEETAPIEATATKEEEGSS
binds: all assays above
